How the values of the data set were obtained:
In situ dissolution experiments were performed with a μDISS Profiler apparatus (pION Inc., MA, USA). The system consists of an integrated diode array spectrophotometer connected to a fiber optic UV probe located directly in the reaction vessel (20 ml scintillation vial) and measures the concentration as a function of time, without filtering the solution. Measurement of the dissolution kinetics was carried out at 220 nm and 270 nm, which are optimal for the UV detection of resveratrol and […], respectively. The concentrations of the compounds in the dissolution media (water, buffer pH=4, pH=6) were calculated by means of a standard curve.

For `COc1cc(/C=C/C(=O)CC(=O)/C=C/c2ccc(O)c(OC)c2)ccc1O` [curcumin], the solubility in water result is on record as “practically insoluble in water”.

The record behind these values is patent US11560358B2, “Resveratrol-piperazine co-crystals” (LETAVIS AB, priority 2018, dated 2023).
